Results are given in words; binding and its absence hold for the method and conditions named. Binding seen in cells or lysates may run through a third protein. Here binding means that the protein was enriched with, or labelled near, the bait; the list need not be complete.

By UniProt entry, the sequences of proteins in these tests, tags left out.
UniProt Q9Y5K6: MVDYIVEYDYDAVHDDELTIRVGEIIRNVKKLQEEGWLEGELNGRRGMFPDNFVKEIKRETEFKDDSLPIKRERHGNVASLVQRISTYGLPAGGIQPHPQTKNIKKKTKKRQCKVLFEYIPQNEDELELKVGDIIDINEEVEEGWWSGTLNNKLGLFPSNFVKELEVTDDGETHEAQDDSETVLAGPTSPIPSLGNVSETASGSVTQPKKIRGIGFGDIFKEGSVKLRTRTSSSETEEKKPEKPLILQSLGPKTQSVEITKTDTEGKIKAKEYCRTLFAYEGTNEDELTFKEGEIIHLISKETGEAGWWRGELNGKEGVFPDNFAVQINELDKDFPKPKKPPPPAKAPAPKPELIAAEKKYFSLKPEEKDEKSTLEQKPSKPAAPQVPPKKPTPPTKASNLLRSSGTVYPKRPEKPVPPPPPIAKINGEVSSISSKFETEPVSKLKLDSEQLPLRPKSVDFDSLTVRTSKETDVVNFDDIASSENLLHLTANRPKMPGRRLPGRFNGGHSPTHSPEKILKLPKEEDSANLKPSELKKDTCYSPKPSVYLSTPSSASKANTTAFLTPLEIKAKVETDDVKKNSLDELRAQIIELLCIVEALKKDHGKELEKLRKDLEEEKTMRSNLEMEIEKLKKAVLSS
UniProt Q9C035: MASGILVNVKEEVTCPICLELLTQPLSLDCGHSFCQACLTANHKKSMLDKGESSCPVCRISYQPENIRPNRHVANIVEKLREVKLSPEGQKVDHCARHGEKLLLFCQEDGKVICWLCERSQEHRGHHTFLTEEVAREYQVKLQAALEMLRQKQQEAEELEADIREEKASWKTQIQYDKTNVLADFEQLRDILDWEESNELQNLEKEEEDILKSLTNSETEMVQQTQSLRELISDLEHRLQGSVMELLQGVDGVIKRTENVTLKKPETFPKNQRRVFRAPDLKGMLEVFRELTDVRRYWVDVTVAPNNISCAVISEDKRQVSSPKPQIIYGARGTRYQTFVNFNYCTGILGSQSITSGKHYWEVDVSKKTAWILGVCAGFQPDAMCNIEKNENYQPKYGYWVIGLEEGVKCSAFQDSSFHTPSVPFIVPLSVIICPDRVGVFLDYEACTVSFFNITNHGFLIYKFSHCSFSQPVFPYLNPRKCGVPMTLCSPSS

For the experiment, the target named is CD2-associated protein (CD2AP), endogenous (human (endogenous in U87MG and U251)) (UniProt Q9Y5K6). Put plainly: affinity purification with mass spectrometry; CD2AP antibody and IgG control used to immunoprecipitate proteins from U87MG cells; SDS-PAGE, in-gel trypsin digestion, timsTOF Pro mass spectrometry.

In the case of “TRIM5, endogenous (from UniProt Q9C035 1-493)”, the binding result is reported as “binds”.

Source of the values: paper PMC11445578.
